Data from PubChem BioAssay AID493027 (The Scripps Research Institute Molecular Screening Center, 2011).
Values joined by “and” are separate entries in the source; they are usually repeats but may differ in a detail not shown here. Identical values can stand only once. Screen size: about 2,000 compounds; about 45 (2%) were called active.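 How the source made its calls: active means inhibition above the screen-wide mean inhibition plus 3 SD (cut at about 44% in these data); inactive means the rest.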 Some of the results follow. Where a SMILES comes first, the peptide text is derived from it. [ ]: non-standard residue; d: D form. ξ: configuration not given here. ξV = CC(C)C(N)C(=O)O

By UniProt entry, the sequences of proteins in these tests, tags left out. Where a name states a change or a piece, a line headed by the entry shows the natural chain unless it says otherwise.
UniProt O60240: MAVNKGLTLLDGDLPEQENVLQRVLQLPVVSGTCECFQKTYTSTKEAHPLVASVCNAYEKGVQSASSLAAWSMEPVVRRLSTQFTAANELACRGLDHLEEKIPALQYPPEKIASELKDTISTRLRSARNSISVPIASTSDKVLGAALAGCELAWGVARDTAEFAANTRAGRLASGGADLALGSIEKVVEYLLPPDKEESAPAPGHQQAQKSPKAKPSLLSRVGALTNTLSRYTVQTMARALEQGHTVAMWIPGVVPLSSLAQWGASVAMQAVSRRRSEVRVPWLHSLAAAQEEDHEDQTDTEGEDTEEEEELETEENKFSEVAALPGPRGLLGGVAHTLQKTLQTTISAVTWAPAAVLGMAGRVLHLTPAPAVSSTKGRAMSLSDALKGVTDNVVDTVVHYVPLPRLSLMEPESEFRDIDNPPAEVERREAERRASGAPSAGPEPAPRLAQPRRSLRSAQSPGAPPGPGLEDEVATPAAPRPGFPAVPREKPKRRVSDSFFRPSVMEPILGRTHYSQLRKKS
UniProt Q8WTS1: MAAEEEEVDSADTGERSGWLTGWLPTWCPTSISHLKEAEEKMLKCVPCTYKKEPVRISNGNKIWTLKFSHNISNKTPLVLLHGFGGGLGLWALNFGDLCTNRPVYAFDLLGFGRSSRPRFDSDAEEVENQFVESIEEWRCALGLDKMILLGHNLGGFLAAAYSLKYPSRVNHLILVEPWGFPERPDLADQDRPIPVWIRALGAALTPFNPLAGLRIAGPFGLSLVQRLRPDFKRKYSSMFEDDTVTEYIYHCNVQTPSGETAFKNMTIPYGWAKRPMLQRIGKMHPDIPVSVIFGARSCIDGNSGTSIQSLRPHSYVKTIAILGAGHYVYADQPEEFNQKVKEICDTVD

These compounds were tested against Perilipin-1 (Homo sapiens) + 1-acylglycerol-3-phosphate O-acyltransferase ABHD5 (Homo sapiens) (UniProt O60240+Q8WTS1) (assay: blockers of ABHD5 binding to perilipin-1 – cell lysate, split luciferase complementation, luminescence, NIH validation set, pilot screen (AID 493027;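 further: 0% = DMSO wells with the 100% control not disclosed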)). Conditions: split G. princeps luciferase complementation, 4 h; at 7.9 µM, hits give high values.
`CCCCNc1ccc(C(=O)OCCN(C)C)cc1` was tested, and the inhibition was inactive: -2.61%.
`O=C(CCSc1ccccc1)N1CCCC1` was tested, and the inhibition was inactive: -10.2%.
For `COc1ccccc1C(CCN(Cc1ccccc1)C(C)=O)c1ccco1` (stereo not given), the inhibition was inactive: 9.44%.
In the case of `CCSC(SCC)[C@H](O)[C@@H](O)[C@H](O)[C@H](O)CO`, the inhibition is reported as inactive: -4.44%.
In the case of `Cc1ccc(NCCC(=O)c2ccccc2)cc1Cl`, the inhibition is reported as inactive: -2.97%.
In the case of `Cc1ccccc1C(OCCN(C)C)c1ccccc1` (stereo not given), the inhibition is reported as inactive: 0.55%.
With `NCCCC(N)(C(=O)O)C(F)F` (stereo not given) the inhibition was inactive: -9.29%.
In the case of `COc1cc(/C=C(\C#N)C(=O)N2CCc3ccccc32)ccc1O`, the inhibition is reported as inactive: 42.5%.
With `COc1c2ccoc2nc2c(OC)cccc12` the inhibition was inactive: -3.07%.
With `CC(C)=CCC(C)(C)/C=N/NC(N)=O` the inhibition was inactive: -12.2%.
For `CC(C)CN1CC(C(=O)O)CC1=O` (stereo not given), the inhibition was inactive: 0.07%.
With `CNc1c2c(nn1C)CCCC2` the inhibition was inactive: -8.89%.
`CC(=O)SC1CC2=CC(=O)CCC2(C)C2CCC3(C)C(CCC34CCC(=O)O4)C12` (stereo not given) was tested, and the inhibition was inactive: 5.44%.
In the case of `COC(=O)C1=C(C)NC(C)=C(C(=O)OCCN(C)Cc2ccccc2)C1c1cccc([N+](=O)[O-])c1` (stereo not given), the inhibition is reported as inactive: -2.37%.
For `COc1ccc(-c2nnc(-c3cc4c(ccc5ccccc54)oc3=O)o2)cc1`, the inhibition was inactive: 1.44%.
In the case of `c1ccc(Nc2cccc3c(Nc4ccccc4)cccc23)cc1`, the inhibition is reported as inactive: 0.52%.
In the case of `O=C1C2C3C=CC(C4CC34)C2C(=O)N1/N=C/c1ccc(-c2ccc([N+](=O)[O-])cc2)o1` (stereo not given), the inhibition is reported as inactive: 5.88%.
In the case of `CC(C)NC(=O)c1ccc(C(C)C)cc1`, the inhibition is reported as inactive: -3.94%.
`CCc1oc2ccccc2c1C(=O)c1cc(Br)c(O)c(Br)c1` was tested, and the inhibition was active: 57.3%.
For `COc1ccc(Cc2nc(-c3ccc(Br)cc3)no2)cc1`, the inhibition was inactive: -12%.
With `CC(C)(C)NCC(O)c1cc(O)cc(O)c1` (stereo not given) the inhibition was inactive: -5.33%.
In the case of `COc1cc(C(=O)Nc2ccc(N(C)C)cc2)c([N+](=O)[O-])cc1OC`, the inhibition is reported as inactive: -0.33%.
With `O=C1[C@@H]2CSCN2C(=O)CN1Cc1ccc(F)cc1` the inhibition was inactive: -14.4%.
`C=C(C)C(=O)Nc1ccc(NC(C)C)cc1` was tested, and the inhibition was inactive: 0.62%.
For `C#C[C@]1(O)CC[C@H]2[C@@H]3CCC4=C(CCC(=O)C4)[C@H]3CC[C@@]21C`, the inhibition was inactive: 5.83%.
In the case of `Cc1nc(NCc2ccco2)c(C#N)c2c1COC(C)(C)C2`, the inhibition is reported as inactive: -8.66%.
`COc1ccc(-c2nc(NC(C)=O)sc2-c2ccc(OC)cc2)cc1` was tested, and the inhibition was inactive: 11.4%.
`CC(=O)NC(Cc1c[nH]c2ccccc12)C(=O)N/N=C/c1ccccc1` (stereo not given) was tested, and the inhibition was inactive: 2%.
In the case of `CN(C)C(=O)CCCCCCCCC(=O)N(C)C`, the inhibition is reported as inactive: 0.84%.
For `CC(C)Oc1cccc(C(=O)N2CCCC2)c1`, the inhibition was inactive: -2.88%.
With `C[N+](C)(C)CCOP(=O)([O-])OC[C@H](O)CO` the inhibition was inactive: -1.99%.
For `O=S(=O)(CCc1nc2ccccc2[nH]1)c1ccc(Cl)cc1`, the inhibition was inactive: -9.54%.
For `CC(=O)NC(C(=O)NCC(N)=O)C(C)C` (stereo not given) (Ac-[ξV]-Gly-NH2), the inhibition was inactive: 0.28%.
In the case of `CC(C)Cc1ccc(C(C)C(=O)O)cc1` (stereo not given), the inhibition is reported as inactive: -4.08%.
`COCCc1ccc(OCC(O)CNC(C)C)cc1` (stereo not given) was tested, and the inhibition was inactive: -13.7%.
`O=C1CN(O)C=C2N=c3ccccc3=C2N1c1ccc([N+](=O)[O-])cc1` was tested, and the inhibition was inactive: 7.75%.
With `CC(C)(C)NCC(O)COc1cccc2c1C[C@H](O)[C@H](O)C2` (stereo not given in full) the inhibition was inactive: -0.3%.
`COCCCNc1nc2c([nH]1)c(=O)[nH]c(=O)n2C` was tested, and the inhibition was inactive: -10.5%.
In the case of `CCN(CC)C(=O)c1sc(NC(=O)c2c(OC)cccc2OC)c(C#N)c1C`, the inhibition is reported as inactive: -10.4%.
For `O=C(O)/C=C/c1cnc[nH]1`, the inhibition was inactive: -7.51%.
With `NCc1ccccc1COc1ccccc1` the inhibition was inactive: 0.98%.
For `CC1COc2c(N3CCN(C)CC3)c(F)cc3c(=O)c(C(=O)O)cn1c23` (stereo not given), the inhibition was inactive: -8.51%.
With `C[C@H]1O[C@H]1P(=O)(O)O` the inhibition was inactive: 2.43%.
In the case of `COc1ccc2[nH]cc(CCNC(=O)C3CCCNC3=O)c2c1` (stereo not given), the inhibition is reported as inactive: -10.1%.
With `CCOC(=O)c1ccc(N2C(=O)C(CC(N)=O)N(CCc3ccc(OC)c(OC)c3)C2=S)cc1` (stereo not given) the inhibition was inactive: 6.04%.
In the case of `CN(C)[C@@H]1C(=O)C(C(N)=O)=C(O)[C@@]2(O)C(=O)C3=C(O)c4c(O)ccc(Cl)c4[C@@H](O)[C@H]3C[C@@H]12`, the inhibition is reported as inactive: -5.77%.
`CC(C)(C)C(=O)NC(=S)NNC(=O)c1ccncc1` was tested, and the inhibition was inactive: -14%.
For `OCCN(CCO)c1ccc2ccccc2c1`, the inhibition was inactive: -12.1%.
For `CN1C(=O)C(O)(CC(=O)/C=C/C=C/c2ccccc2)c2ccccc21` (stereo not given), the inhibition was inactive: 5.93%.
`Cn1cc(C2N3CC4(C)CN2CC(C)(C3)C4=O)c2ccccc21` (stereo not given) was tested, and the inhibition was inactive: -7.09%.
`CC(=O)OCC[N+](C)(C)C` was tested, and the inhibition was inactive: -10.6% and inactive: -5.65%.
In the case of `Cn1c(=O)c(C(=O)NCCO)c(O)c2ccccc21`, the inhibition is reported as inactive: -5.11%.
With `CC[n+]1ccc2cc(OC)c(OC)cc2c1Cc1ccc(OC)c(OC)c1` the inhibition was inactive: -12.6%.
For `O=C(/C=C/c1ccc2c(c1)OCO2)c1ccccn1`, the inhibition was active: 51.3%.
With `COc1cc(/C=C/C(=O)CC(=O)/C=C/c2ccc(O)c(OC)c2)ccc1O` the inhibition was active: 50.4%.
In the case of `CC1(C)C(C=C(Cl)Cl)C1C(=O)N1CCN(Cc2ccccc2)CC1` (stereo not given), the inhibition is reported as inactive: -10.6%.
`CNC(=O)Oc1ccc2c(c1)[C@]1(C)CCN(C)[C@@H]1N2C` was tested, and the inhibition was inactive: -15.5%.
`CC(C)CN1CCN(Cc2cccn2-c2ccccn2)CC1CCO` (stereo not given) was tested, and the inhibition was inactive: -3.48%.
`CCC(=O)c1ccc(OCc2ccc(C(=O)OC)cc2)cc1` was tested, and the inhibition was inactive: -4.79%.
For `CCOC(=O)N1c2ccccc2C=CC1OCC` (stereo not given), the inhibition was inactive: 1.73%.
With `COc1cccc(OCC(O)CO)c1` (stereo not given) the inhibition was inactive: -6.76%.
`NC(CO)C(=O)NNCc1ccc(O)c(O)c1O` (stereo not given) was tested, and the inhibition was inactive: -7.59%.
`CN(C)CCCN1c2ccccc2CCc2ccccc21` was tested, and the inhibition was inactive: -4.72%.
In the case of `COc1ccc2cc(C(=O)OC(C)C)sc(=O)c2c1OC`, the inhibition is reported as inactive: 3.53%.
`CC12CN3CC(C)(CN(C1)C3c1ccc(Cl)cc1Cl)C2=O` (stereo not given) was tested, and the inhibition was inactive: -6.26%.
With `Cc1cc(O)c(C(=O)Cc2csc(C)n2)c(O)c1` the inhibition was inactive: -0.56%.
In the case of `O=c1[nH]cnc2[nH]ncc12`, the inhibition is reported as inactive: 3.56%.
With `CN(C)C(=O)Oc1cccc([N+](C)(C)C)c1` the inhibition was inactive: -7% and inactive: -2.24%.
`CN1CCC(OC(c2ccccc2)c2ccccc2)CC1` was tested, and the inhibition was inactive: -7.52%.
With `CCOc1ncnc2c1[nH]c1ccccc12` the inhibition was inactive: -0.24%.
For `C[n+]1ccccc1/C=N/O`, the inhibition was inactive: -15% and inactive: -9.06%.
With `COc1ccc(CN2CCCCC2C(=O)Nc2ccc(OC)c(OCC(C)C)c2)cc1OC` (stereo not given) the inhibition was inactive: -7.15%.
For `Cc1cccc(Nc2ccccc2C(=O)O)c1C`, the inhibition was inactive: -6.43%.
`CCC(C)n1ncn(-c2ccc(N3CCN(c4ccc(OCC5COC(Cn6cncn6)(c6ccc(Cl)cc6Cl)O5)cc4)CC3)cc2)c1=O` (stereo not given) was tested, and the inhibition was inactive: 6.51%.
In the case of `CNCCCN1c2ccccc2CCc2ccccc21`, the inhibition is reported as inactive: -10.1%.
`O=C1CC(c2ccc(F)cc2)Cc2nc(NCC3CCCO3)ncc21` (stereo not given) was tested, and the inhibition was inactive: -8.75%.
With `COc1cc(OC)c(-c2nc3cnccc3n2C)cc1OC` the inhibition was inactive: -12.2%.
With `CCCCCCCC(=O)OCC(=O)[C@@]1(O)CC[C@H]2[C@@H]3CCC4=CC(=O)CC[C@]4(C)[C@H]3[C@@H](O)C[C@@]21C` the inhibition was inactive: -5.24%.
In the case of `CC1(C)S[C@@H]2[C@H](NC(=O)Cc3ccccc3)C(=O)N2[C@H]1C(=O)O`, the inhibition is reported as inactive: -1.81%.
With `Cc1cc(=O)c2c(O)c(O)ccc2o1` the inhibition was inactive: -5.04%.
For `COc1ccccc1OCC(=O)O`, the inhibition was inactive: -2.36%.
`CCCCC/C=C\C[C@H](O)/C=C/c1cccc(C[C@H](O)CCCCO)n1` was tested, and the inhibition was active: 57.6%.
With `Cc1ccc2c(c1)C(O)(CC(=O)/C=C/C=C/c1ccccc1)C(=O)N2` (stereo not given) the inhibition was inactive: 16.4%.
With `COc1ccc2c(c1)[nH]c1c(=O)n(Cc3ccccn3)cnc12` the inhibition was inactive: -5.21%.
In the case of `Cn1c(=O)[nH]c(=O)c2c1nc(NCc1ccco1)n2CCCc1ccccc1`, the inhibition is reported as inactive: -8.69%.
In the case of `CC1(C)CC(=O)c2cnc(NC(=O)C3CCCC3)nc2C1`, the inhibition is reported as inactive: -3.78%.
`COc1ccc(-n2cc(CNCc3cccnc3)c(-c3cccc(F)c3)n2)cc1` was tested, and the inhibition was inactive: -5.39%.
`Cn1c(=O)c2c(ncn2CCO)n(C)c1=O` was tested, and the inhibition was inactive: -4.77%.
In the case of `C#CCN(C)CCCOc1ccc(Cl)cc1Cl`, the inhibition is reported as inactive: -6.41%.
For `Cc1c(NC(=O)c2cccs2)cccc1[N+](=O)[O-]`, the inhibition was inactive: -7.26%.
With `Cc1nc2cc3ccccc3cc2c(=O)[nH]1` the inhibition was inactive: -3.56%.
For `COc1cccc(CN2C(=O)N(C(C)C)C(N(O)C(=O)NC(C)C)C2(C)C)c1OC` (stereo not given), the inhibition was inactive: -1.66%.
With `COc1ccc(C2C3=C(CC(C)(C)CC3=O)N(C)C3=C2C(=O)CC(C)(C)C3)cc1` the inhibition was inactive: -1.89%.
With `O=C(c1ccc(Cl)cc1)C1CCCN(Cc2ccc(Oc3ncccn3)cc2)C1` (stereo not given) the inhibition was inactive: 3.67%.
For `O=C(OCCNC(=O)c1ccc2ccccc2n1)c1ccc(F)cc1`, the inhibition was inactive: 9.4%.
For `CC12CC(c3ccccc3O1)C(C(=O)N1CCOCC1)C(=O)N2` (stereo not given), the inhibition was inactive: -10.7%.
For `CCC(C)NCCOCCOc1ccc(Cl)cc1Br` (stereo not given), the inhibition was inactive: -2.78%.
With `COc1cc(NC(=S)NN2CCN(C)CC2)cc(OC)c1OC` the inhibition was inactive: -10%.
In the case of `CC1=NN(C(=O)c2ccc(Br)cc2)C(O)(c2ccccc2)C1` (stereo not given), the inhibition is reported as inactive: 6.64%.
In the case of `CN1[C@@H](CC(=O)c2ccccc2)CCC[C@H]1C[C@H](O)c1ccccc1`, the inhibition is reported as inactive: 0.86%.
